System: tenascin C
Assay: Biopanning of tenascin C-binding phages (Ph.D.-12 library), clone sequencing
Settings: 35 clones sequenced after three rounds of biopanning
Method: The phage-display peptide library (Ph.D.-12) was purchased from New England Biolabs (Beverly, Mass.). The phage library was panned for O/N at 4° C. in 96-well plates coated with 0.15 ml (His)6-tagged-TNCfnA-D (10 μg/ml) or full-length tenascin C protein (20 μg/ml) in 0.1 M NaHCO3 (pH 8.6). The wells were then blocked with blocking buffer (0.1 M NaHCO3 [pH 8.6], 0.5% BSA and 0.02% NaN3) for 1 h at 4° C. and 2×10^11 pfu/ml phages were added to the target protein-coated plates. After incubation for 30 min at 25° C., unbound or weakly bound phages were removed by rinsing ten times with TBST, and bound phages were eluted by incubation for 8 min in 0.1 ml elution buffer (0.2 M glycine-HCl [pH 2.2] and 0.1% BSA). […] After three rounds, independent clones were isolated on LB/IPTG/X-gal plates, and phage titers were calculated from the number of plaques formed.
Thirty five clones from the two independent selections were sequenced. […] The nucleotide sequences of the isolated DNAs were determined with an automatic sequencer (ABI prism) and primer 5′-[…]-3′ (SEQ ID NO:20).
To screen for peptide aptamers that bound to the cancer-specific tenascin C protein isoform, the alternatively spliced domain of fibronectin type III (FN III) (A1-D) was expressed as a His-tagged tenascin C protein (designated His-TNCfnA-D in FIG. 2A). […]

Sequence | Frequency (identical clones among the sequenced clones)
FHKPFFPKGSARGGG [peptide aptamer #1] | 13
FHKHKSPALSPVGGG [peptide aptamer #2] | 19

— US9018351B2, “Peptide aptamers against tenascin C” (Industry-Academy Cooperation Foundation, priority 2007, dated 2015)
